Values of other authors in US20230310542A1, “EPIGENETIC MODIFIERS TO TREAT RETINAL DEGENERATIONS” (priority 2022, published 2023).
At least one compound was matched to its structure with a doubt left.

System: rd1 mice
Settings: previous studies; cited from earlier work

## Nc1ncn([C@H]2C[C@H](O)[C@@H](CO)O2)c(=O)n1 [decitabine]
  retinal degeneration / photoreceptor loss in rd1 mouse: reduction of photoreceptor loss
